For this experiment, the target named is HSV1 gE/gI complex on glioma cells expressing both Us7 and Us8 (glioma Us7+Us8) (herpes simplex virus 1 (F strain)) (UniProt P04488). Briefly: flow cytometry on transfected glioma cells.

By UniProt entry, the sequences of proteins in these tests, tags left out. Where a name states a change or a piece, a line headed by the entry shows the natural chain unless it says otherwise.
UniProt P04488: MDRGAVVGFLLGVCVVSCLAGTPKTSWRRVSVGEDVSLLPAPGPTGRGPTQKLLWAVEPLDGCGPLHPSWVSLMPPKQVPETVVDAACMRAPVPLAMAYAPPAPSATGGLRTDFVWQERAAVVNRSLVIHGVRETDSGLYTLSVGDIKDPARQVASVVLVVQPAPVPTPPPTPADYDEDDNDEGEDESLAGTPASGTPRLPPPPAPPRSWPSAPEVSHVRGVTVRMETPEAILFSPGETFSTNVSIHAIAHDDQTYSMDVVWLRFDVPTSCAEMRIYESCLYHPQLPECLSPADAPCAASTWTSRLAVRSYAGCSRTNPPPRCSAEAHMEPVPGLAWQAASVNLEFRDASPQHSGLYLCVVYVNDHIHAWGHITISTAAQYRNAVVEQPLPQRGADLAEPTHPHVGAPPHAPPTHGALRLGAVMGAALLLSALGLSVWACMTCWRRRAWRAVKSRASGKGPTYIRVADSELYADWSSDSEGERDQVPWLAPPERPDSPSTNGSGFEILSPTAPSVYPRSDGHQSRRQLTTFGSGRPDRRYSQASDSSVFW

No constants are given. Whether binding was seen depends on the method and setting. Some entries that bind do so weakly or less than the wild type.

We go through 1 substance from patent publication US20200040064A1 (OHIO STATE INNOVATION FOUNDATION, published 2020).

With “IgG1 Fc(ACD16), recombinant human IgG1 Fc fragment aa262-466 without the CD16a binding sites (from UniProt P0DOX5 245-449)”, the binding entry is “binds”.
